{
  "source": "paper PMC7524712",
  "molecules": {"B1": {"name": "6xHis-SUMO-vdUTPase (enzyme, UniProt P10234 1-371)", "chain": "MSQWGSGAILVQPDSLGRGYDGDWHTAVATRGGGVVQLNLVNRRAVAFMPKVSGDSGWAVGRVSLDLRMAMPADFCAIIHAPALASPGHHVILGLIDSGYRGTVMAVVVAPKRTREFAPGTLRVDVTFLDILATPPALTEPISLRQFPQLAPPPPTGAGIREDPWLEGALGAPSVTTALPARRRGRSLVYAGELTPVQTEHGDGVREAIAFLPKREEDAGFDIVVRRPVTVPANGTTVVQPSLRMLHADAGPAACYVLGRSSLNARGLLVVPTRWLPGHVCAFVVYNLTGVPVTLEAGAKVAQLLVAGADALPWIPPDNFHGTKALRNYPRGVPDSTAEPRNPPLLVFTNEFDAEAPPSERGTGGFGSTGI"}},
  "key": {"[1]": {"molecular_target": "T1, GST-vdUTPase_(281–371) (herpes simplex virus 1, strain F) (UniProt P10234)", "T1 sequence": "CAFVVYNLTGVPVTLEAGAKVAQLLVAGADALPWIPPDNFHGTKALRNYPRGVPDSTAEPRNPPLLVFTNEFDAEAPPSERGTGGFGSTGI", "experiment": "pull-down; purified GST, GST-vdUTPase_(201–280) or GST-vdUTPase_(281–371) immobilised on glutathione-sepharose resin, purified SE-piUL49 or SE-piUL49R83L in solution, 1 h at 4 °C, washed with 0.5% NP-40 buffer; immunoblot; both purified"}, "[2]": {"molecular_target": "T2, GST-vdUTPase_(201–280) (herpes simplex virus 1, strain F) (UniProt P10234)", "T2 sequence": "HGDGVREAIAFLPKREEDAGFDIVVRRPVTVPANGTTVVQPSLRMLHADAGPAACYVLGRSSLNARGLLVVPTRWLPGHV", "experiment": "pull-down; purified GST, GST-vdUTPase_(201–280) or GST-vdUTPase_(281–371) immobilised on glutathione-sepharose resin, purified SE-piUL49 or SE-piUL49R83L in solution, 1 h at 4 °C, washed with 0.5% NP-40 buffer; immunoblot; both purified"}, "[3]": {"molecular_target": "T3, HSV-1 dUTPase (vdUTPase) (herpes simplex virus 1, strain F) (UniProt P10234)", "T3 sequence": "B1 chain", "experiment": "proximity ligation; Duolink PLA in fixed Vero cells infected with MEF-iUL49 at an MOI of 10 for 12 h; primary antibodies to vdUTPase and Flag"}, "[4]": {"molecular_target": "T1, GST-vdUTPase_(281–371) (herpes simplex virus 1, strain F)", "experiment": "pull-down; purified GST proteins immobilised on glutathione-sepharose resin, lysate of HEK293FT cells transfected with pFLAG-iUL49, 1 h at 4 °C, 0.5% NP-40 buffer; anti-Flag immunoblot; only the target purified"}, "[5]": {"molecular_target": "T2, GST-vdUTPase_(201–280) (herpes simplex virus 1, strain F)", "experiment": "pull-down; purified GST proteins immobilised on glutathione-sepharose resin, lysate of HEK293FT cells transfected with pFLAG-iUL49, 1 h at 4 °C, 0.5% NP-40 buffer; anti-Flag immunoblot; only the target purified"}, "[6]": {"molecular_target": "T4, vdUTPase tagged with Strep-tag (SE-vdUTPase) (herpes simplex virus 1, strain F) (UniProt P10234)", "T4 sequence": "B1 chain", "experiment": "co-IP; Strep-tag affinity precipitation: lysates (0.5% NP-40 buffer, 150 mM NaCl) of Vero cells infected at an MOI of 10 for 12 h, Strep-Tactin sepharose beads, 4 °C, 1.5 h; immunoblot"}, "[7]": {"molecular_target": "GST-piUL49 (herpes simplex virus 1, strain F)", "experiment": "pull-down; purified GST-piUL49 or GST-piUL49R83L immobilised on glutathione-sepharose resin, purified 6xHis-SUMO-vdUTPase or 6xHis-SUMO-vUNG in solution, 1 h at 4 °C, washed with 0.5% NP-40 buffer; immunoblot; both purified"}},
  "note": "Results are given in words; binding and its absence hold for the method and conditions named. For some of these results: Binding calls can cover weak binding; strength is not graded here. For some of these results: Where a sequence is shown, tags or fusion partners need not be part of it. For some of these results: Binding seen in cells or lysates may run through a third protein.",
  "data": [
    {"molecule": "SE-piUL49 (herpes simplex virus 1, strain F)", "values": [
      {"measurement": "binding", "setting": "[1]", "result": "no binding"},
      {"measurement": "binding", "setting": "[2]", "result": "binds"}
    ]},
    {"molecule": "MEF-piUL49 (herpes simplex virus 1, strain F)", "values": [
      {"measurement": "binding", "setting": "[3]", "result": "binds"}
    ]},
    {"molecule": "Flag-piUL49 (herpes simplex virus 1, strain F)", "values": [
      {"measurement": "binding", "setting": "[4]", "result": "no binding"},
      {"measurement": "binding", "setting": "[5]", "result": "binds"}
    ]},
    {"molecule": "piUL49 (product of the iUL49 CDS of HSV-1) (herpes simplex virus 1, strain F)", "values": [
      {"measurement": "binding", "setting": "[6]", "result": "binds"}
    ]},
    {"molecule": "B1", "values": [
      {"measurement": "binding", "setting": "[7]", "result": "binds"}
    ]}
  ]
}
